# PubChem BioAssay AID504467 (National Center for Advancing Translational Sciences (NCATS), 2011)
# The campaign covered roughly 330,000 compounds. About 7,700 (2.3%) were called active. Inconclusive means that the source gave no clear call. Such entries were picked first, then a sample of the others. Calls come from the whole dose curve; as a rule, active = well fitted inhibition curve with a large enough effect; inconclusive = small, poorly fitted or top-dose-only effect, or effect the other way; inactive = flat fitted curve, though single readings scatter. Where the call is inconclusive, the potency comes from a doubtful curve fit.
# Experiment: qHTS screen for small molecules that inhibit ELG1-dependent DNA repair in human embryonic kidney (HEK293T) cells expressing luciferase-tagged ELG1; note: nearly all actives have a fitted effect of over 55% in size
# Settings: HEK293T ELG1-luciferase reporter, luminescence, 16 h, DNA damage induced by 5-fluorouridine; series mostly up to 46.1 µM
# Procedure, shortened: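 5-Fluorouridine DNA damage + compound/DMSO, 2,000 cells/well, 16 h, 37 °C/5% CO2. ONE-Glo, 30 min RT, luminescence. Readout = decrease in reporter signal.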
# Potency is the fitted concentration of half-maximal effect.
row,Compound,Potency
1,O=C(NCc1ccc(F)cc1)c1cc(S(=O)(=O)N2CCCCC2)ccc1Cl,inactive
2,CCCS(=O)(=O)c1c(S(=O)(=O)CCC)c2c(C)cccn2c1C(N)=O,inactive
3,COc1ccccc1N1CCN(C(=O)CSc2ncnc3scc(-c4ccccc4)c23)CC1,"inconclusive: 25.9 µM [inhibitor, single point]"
4,CCCC1(C(=O)OC)NC(c2ccc(OC)cc2OC)C2C(=O)N(c3cccc(C(C)=O)c3)C(=O)C21 (stereo unspecified),"inconclusive: 18.3 µM [inhibitor, single point]"
5,O=C(Nc1ccc(Cl)cc1)c1ccc(-n2cccn2)c([N+](=O)[O-])c1,inactive
6,Brc1ccc(-c2ccc(/C=N/Nc3nncc(-c4ccccc4)n3)o2)cc1,"inconclusive: 3.26 µM [inhibitor, single point]"
7,CCCC1=NN2C(=N)/C(=C\c3ccc(SCc4ccco4)o3)C(=O)N=C2S1,inactive
8,COc1ccc(C)c2sc(NC(=O)C3CC3)nc12,"inconclusive: 29.1 µM [activator, single point]"
9,Cc1cc(C)c2c(c1)/C(=C/C(=O)c1ccc(Br)s1)C(=O)N2,"inconclusive: 29.1 µM [inhibitor, single point]"
10,O=C(Nc1ccc(Nc2ccccc2)cc1)c1ccc(Br)cc1,inactive
11,COc1ccc(OCC(=O)Nc2cccc(OC)c2)cc1,"inconclusive: 5.8 µM [activator, partial curve]"
12,CC1CCCCC1NC(=O)COC(=O)c1ccc(N(C)C)cc1 (stereo unspecified),"inconclusive: 32.6 µM [inhibitor, partial curve, poor fit]"
13,CC(NC(=O)c1ccc(Cl)c(Cl)c1)c1ccc(-c2ccccc2)cc1 (stereo unspecified),"inconclusive: 29.1 µM [inhibitor, single point]"
14,CC1(C)CC(=O)N(c2cccc(Cl)c2)C(=O)C1,inactive
15,CC(=O)Nc1nc(C2COc3ccccc3O2)cs1 (stereo unspecified),"inconclusive: 6.51 µM [activator, partial curve]"
16,Cc1ccc(-c2nnc(NC(=O)C3=COCCO3)o2)c(C)c1,"inconclusive: 29.1 µM [activator, partial curve, poor fit]"
17,CCn1c(SCC(=O)N(C)CCC#N)nc2cc(S(=O)(=O)N3CCOCC3)ccc21,inactive
18,COc1cc(CNCc2cccs2)ccc1OCC(=O)NC(C)(C)C,inactive
19,CC(C)CC(C(=O)NC1CCCCC1)N(Cc1cccs1)C(=O)c1snc(C(N)=O)c1N (stereo unspecified),"inconclusive: 20.6 µM [inhibitor, single point]"
20,COc1ccc(/C=N/NC(=O)c2cccnc2)cc1CN1CCOCC1,inactive
21,O=C(CN1C(=O)/C(=C/c2cccc(Br)c2)SC1=S)N1CCCC1,inactive

# Given with bars between the fields: entries from further up
row | Compound | Potency
4 | CCCC1(C(=O)OC)NC(c2ccc(OC)cc2OC)C2C(=O)N(c3cccc(C(C)=O)c3)C(=O)C21 (stereo unspecified) | inconclusive: 18.3 µM [inhibitor, single point]
5 | O=C(Nc1ccc(Cl)cc1)c1ccc(-n2cccn2)c([N+](=O)[O-])c1 | inactive
6 | Brc1ccc(-c2ccc(/C=N/Nc3nncc(-c4ccccc4)n3)o2)cc1 | inconclusive: 3.26 µM [inhibitor, single point]
14 | CC1(C)CC(=O)N(c2cccc(Cl)c2)C(=O)C1 | inactive
15 | CC(=O)Nc1nc(C2COc3ccccc3O2)cs1 (stereo unspecified) | inconclusive: 6.51 µM [activator, partial curve]
18 | COc1cc(CNCc2cccs2)ccc1OCC(=O)NC(C)(C)C | inactive
